Measurements as given in PubChem BioAssay AID687031 (Broad Institute, 2013).
The whole screen tested about 1,400 compounds, of which about 50 (4%) were called active.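 Rule for the calls: active = fitted curve reaches 30% CPE protection at or below the top valid dose, with every test run called active; inconclusive = test runs disagree, some active and some not; inactive = every test run inactive, including effects in the wrong direction.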 Some of the results follow. Measured potencies and affinities stand elsewhere.

Assay: antiviral rescue of DENV2-infected BHK-21 cells – cell-based, ATP luminescence, cherry-pick, dose response (AID 687031);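 note: 0% = infected DMSO wells and 100% = uninfected cell wells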
Settings: BHK-21 DENV2 CPE protection, 5 d; at 19.5 µM (top of the series) unless noted

CPE protection (higher = active), inactive:
O=C(c1ccncc1)N1CCCC(N2CCN(c3cccc(C(F)(F)F)c3)CC2)C1 (centres undefined) 22.6%
C[C@@H]1CCCCO[C@@H](CN(C)C(=O)Cc2ccccc2)[C@H](C)CN([C@H](C)CO)C(=O)c2cc(NS(=O)(=O)c3ccc(Cl)cc3)ccc2O1 -11.9%
COc1ccccc1-c1noc2c1C(=O)N(Cc1cn(Cc3ccccc3)nn1)CC2 6.91%
CC12CCC(=O)N1C(C(=O)Nc1ccc(S(=O)(=O)N3CCCCC3)cc1)CS2 (centres undefined) 9.93%
CCc1ccc2c(F)cccc2n1 -10.3%
COc1ccc2c3c(n(C)c2c1)[C@@H](CO)N(Cc1ccc(F)cc1)CC31CN(CC2CCOCC2)C1 12.6%
O=C(NCC1CCCCC1)[C@@H]1[C@@H](CO)[C@@H]2Cn3c(cccc3=O)[C@H]1N2CCc1ccccc1 4.12%
CCOC(=O)C1=C(C)NC(=O)C(C#N)C1c1ccncc1 (centres undefined) -19.2%
CN1[C@@H]2Cn3c(ccc(C4=CCCC4)c3=O)[C@H]1[C@@H](C(=O)N1CCCCC1)[C@@H]2CO 21.2%
Clc1ccc2nc(C3CCCCC3)c(CC3CCCCC3)n2c1 -12.1%
CC1=CC(C)(C)Nc2ccccc21 3.47%
COc1ccc(C2=Nn3c(nnc3-c3ccccc3OC)SC2)cc1OCC1CC1 -3.44%
O=C(Nc1ccc(Cc2ccncc2)cc1)c1cccs1 35.7%
O=C1c2ccccc2[C@@H]2C[C@@H](O)[C@H](Nc3cccc4ccccc34)CCN12 -10.2%
CCC(C)[C@H]1CNCCN1CCc1cc(C(F)(F)F)cc(C(F)(F)F)c1 (some centres undefined) 25.1%
Cn1cc([C@]2(O)C(=O)Nc3ccccc32)c2ccccc21 -11.7%
NC[C@H](Cc1ccccc1)NCCCCC1CCCCC1 -18.6%
COc1ccc(C(=O)N2CCCCC2c2cc(C(=O)NCc3cccnc3)no2)cc1 (centres undefined) -19.2%
CN1CCN(C(=O)c2cc3sc4ccccc4c3s2)CC1 0.745%
O=C1CCC(C(=O)OCC(=O)Nc2ccc(SC(F)F)cc2)=NN1 24%
CCc1cccc(-n2c(C)cc(O)cc2=O)c1 -5.28%
CCCC[C@@H]1CNC(=O)C(=O)N1CCCCC1CCCCC1 1.63%
COc1ccc(S(=O)(=O)N2CCCCN3[C@H](CO)[C@H](c4ccc(C5=CCCC5)cc4)[C@@H]3C2)cc1 -14.4%
CCOc1cc(C(=O)N(C)CC(=O)Nc2cccc3ccccc23)ccc1OC 5.02%
Cc1cccc(Oc2nccc(C(F)(F)F)c2C(=O)Nc2ccc(F)cc2F)c1 -3.58%
c1ccc(-c2ccc(OCCN3CCOCC3)cc2)cc1 6.91%
C[C@H](NC(=O)[C@@H]1CCCN1C(=O)OC(C)(C)C)c1ccccc1 10.7%
CCC(=O)N1CC[C@@H]2[C@H](CO)Nc3ccc(-c4cccc(C#N)c4)cc3[C@@H]21 22.9%
C[C@H](CO)N1C[C@H](C)[C@H](CN(C)C(=O)CCCN(C)C)OCCCC[C@H](C)Oc2ccc(NC(=O)Cc3ccccc3)cc2C1=O -11.1%
Cc1ccccc1OCCOC(=O)c1cc(S(=O)(=O)N2CCOCC2)ccc1C 19.7%
COc1ccc(Br)cc1CN1CCC(N2CCCC2)CC1 9.97%
N#Cc1cccc(-c2ccc(C3[C@@H]4CN(C(=O)c5cccnc5)C[C@H]3N4)cc2)c1 (some centres undefined) -5.06%
COc1ccc(NC(=O)Nc2cccc3c2O[C@H](CN(C)C(=O)NC2CCCCC2)[C@H](C)CN([C@@H](C)CO)C3=O)cc1 0.224%
O=C(O)[C@H]1[C@H](CO)[C@H]2Cn3c(ccc(/C=C/c4ccccc4)c3=O)[C@H]2N1C(=O)c1cnccn1 8.22%
CCN1[C@H](C(=O)NCCCN(C)C)[C@@H](CO)[C@@H]2Cn3c(ccc(-c4cccc(F)c4)c3=O)[C@@H]21 12%
CCCCN1C[C@H](Cc2ccccc2)[C@@H](CC(=O)NCc2ccc(OC)cc2)C1=O 2.77%
C[C@@H]1CN([C@H](C)CO)C(=O)Cc2cc(NC(=O)CCCCCC(=O)Nc3ccccc3N)ccc2O[C@@H]1CN(C)Cc1ccc(C(F)(F)F)cc1 -7.66% [at 16 µM]
C[C@@H]1CCCCO[C@@H](CN(C)Cc2ccc(C(=O)O)cc2)[C@H](C)CN([C@H](C)CO)C(=O)c2cc(NC(=O)c3ccccc3)ccc2O1 -2.03%
CO[C@@H]1CN(C)C(=O)c2ccc(NC(=O)CC(F)(F)F)cc2OC[C@H](C)N(C(C)=O)C[C@@H]1C 9.73%
Cc1ccc(S(=O)(=O)N2CCCCC2)cc1NC(=O)CCOc1ccccc1 -13.6%
CCC(=O)N1C[C@@H](C)[C@@H](OC)CN(C)C(=O)c2ccc(NC(=O)Nc3ccc(Cl)cc3)cc2OC[C@H]1C 0.873%
O=S(=O)(NCc1ccc(F)cc1)c1ccccc1Br -9.93%
C[C@@H]1CCCCO[C@@H](CN(C)C(=O)C2CCCCC2)[C@H](C)CN([C@H](C)CO)C(=O)c2cc(NC(=O)c3ccncc3)ccc2O1 12.6%
COCCn1nnnc1C(c1cc2cc(C)ccc2[nH]c1=O)N1CCN(C2CCCCC2)CC1 (centres undefined) 9.44%
N#Cc1cccnc1N1CCN(C(=O)c2ccccc2)CC1 -12.5%
CCCNC(=O)C(Cc1ccc(I)cc1)NC(=O)c1ccc(C#N)cc1 (centres undefined) -14.2%
Cc1ccc(S(=O)(=O)N2CCN(C(=O)C(O)c3ccccc3)CC2)cc1 (centres undefined) 13%
N#C[C@H]1[C@@H](c2ccc(C3=CCCCC3)cc2)[C@@H](CO)N1S(=O)(=O)c1cccc(F)c1 25.4%
COCCN(C(=O)COC(=O)CC(C)c1ccccc1)c1c(N)n(Cc2ccccc2)c(=O)[nH]c1=O (centres undefined) -5.14%
CCCCn1c(N)c(N(CC)C(=O)c2cc(C)cc(C)c2)c(=O)[nH]c1=O -24.1%
CC1(C(=O)NS(=O)(=O)Cc2cccc(Cl)c2)CCN1C(=O)c1ccc(C2CCCCC2)cc1 (centres undefined) 14.8%
O=S(=O)(Nc1nc(SCc2ccc(Cl)cc2)n[nH]1)c1ccc(F)cc1 -24.2%
Cc1ccc(N(C)C(=O)N2CCN(S(=O)(=O)c3ccc(C)cc3)CC2)cc1 1.56%
COc1ccc(NC(=O)Nc2ccc3c(c2)C(=O)N([C@@H](C)CO)C[C@H](C)[C@H](CN(C)Cc2ccc(C(=O)O)cc2)OCCCC[C@H](C)O3)cc1 -7.85%
COc1ccc(-c2ccc3c(c2)[C@H]2[C@H](CCN2C(=O)CN2CCOCC2)[C@@H](CO)N3)cc1 21.7%
CSc1cccc(NC(=O)CC2Oc3ccccc3NC2=O)c1 (centres undefined) -0.118%
Cc1ccc(C(=O)OCC(=O)Nc2ccccc2C(F)(F)F)cc1S(=O)(=O)N1CCCCC1 -2.24%
O=C(C1CCOCC1)N1CC[C@@H]2[C@H]1c1cc(-c3cccc(F)c3)ccc1N[C@@H]2CO -4.08%
CC(C)NC(=O)N1C[C@H]2[C@@H](c3ccccc31)[C@@H](CO)N2C(=O)c1ccccn1 6.1%
O=C(Nc1cccc(-n2cnnn2)c1)C1CCCN(C(=O)Cc2cccc(Cl)c2)C1 (centres undefined) 22.5%
Cc1cccc(C)c1OCC(=O)NNC(=O)CCCn1c(=O)oc2ccccc21 -33.7%
CCC(C(=O)Nc1c(C)cccc1C)n1c(-c2ccc(=O)[nH]c2)nc2ccccc21 (centres undefined) 6.71%
O=C(O)CCCCCCCCc1cn(CCc2c[nH]c3ccccc23)nn1 5.69%
Nc1sc(-c2ccccc2)cc1C(=O)NCCN1CCOCC1 9.75%
CN(Cc1nccs1)C(=O)c1ccc(OC2CCN(Cc3ccccn3)CC2)cc1 7.95%
O=C(CN1CCN(c2cccc(C(F)(F)F)c2)CC1)N(C1CCCC1)C1CCS(=O)(=O)C1 (centres undefined) -19.2%
Cc1nc2ccccc2n1C(c1cccnc1)c1nc2ccccc2[nH]1 (centres undefined) 4.03%
COc1ccc(CCN2CC(C(=O)NCCc3ncccc3C)CCC2=O)cc1 (centres undefined) 11.2%
Cc1cccc(C(=O)NC2CCN(CC(=O)Nc3cccc(Cl)c3)CC2)c1 11.9%
CN(C)c1cccc(C(=O)Nc2cc(C(F)(F)F)ccc2-n2cnc3ccccc32)c1 -10.5%
Cc1ccc(C2=NOC(C)(c3nnc(-c4ccncc4)o3)C2)cc1 (centres undefined) 0.835%
COC(=O)c1ccc(NC(=O)C2CC3CCC2C3)cc1 (centres undefined) -5.25%
Cc1c(C(=O)Nc2ccccc2F)sc2ncn(CC(=O)N3CCOCC3)c(=O)c12 -2.2%
CO[C@@H](CN(C)C(=O)c1cc(Cl)cc(Cl)c1)[C@H](C)CN(C(=O)Nc1ccc(F)cc1)[C@@H](C)CO 21.3% [at 10 µM]
CCc1ccc(OCC(O)CN2CCN(c3ccccc3)CC2)cc1 (centres undefined) 11.7%
C[C@H](CO)N1C[C@H](C)[C@@H](CN(C)S(=O)(=O)c2cn(C)cn2)OCCCC[C@H](C)Oc2ccc(NC(=O)Cc3ccccc3)cc2C1=O 9.85%
COc1ccc(-c2nc3ccc(C)cn3c2Cc2cccc(F)c2)cc1OC -19.3%
COc1cc(C(=S)N2CCCCC2)ccc1OCC(=O)Nc1ccc(F)cc1 -0.751%
CCc1c(C(=O)Nc2cc(C(=O)OC)ccc2C)csc1C 31.5%

Fetched by compound from the entries so far (3):
CPE protection (higher = active), inactive:
O=C(O)[C@H]1[C@H](CO)[C@H]2Cn3c(ccc(/C=C/c4ccccc4)c3=O)[C@H]2N1C(=O)c1cnccn1 8.22%
O=C(Nc1ccc(Cc2ccncc2)cc1)c1cccs1 35.7%
CCCC[C@@H]1CNC(=O)C(=O)N1CCCCC1CCCCC1 1.63%
